# Reference: publication PMC10634091
# By UniProt entry, the sequences of proteins in these tests, tags left out. Residues count along the entry.
# UniProt Q13308, 31-1070: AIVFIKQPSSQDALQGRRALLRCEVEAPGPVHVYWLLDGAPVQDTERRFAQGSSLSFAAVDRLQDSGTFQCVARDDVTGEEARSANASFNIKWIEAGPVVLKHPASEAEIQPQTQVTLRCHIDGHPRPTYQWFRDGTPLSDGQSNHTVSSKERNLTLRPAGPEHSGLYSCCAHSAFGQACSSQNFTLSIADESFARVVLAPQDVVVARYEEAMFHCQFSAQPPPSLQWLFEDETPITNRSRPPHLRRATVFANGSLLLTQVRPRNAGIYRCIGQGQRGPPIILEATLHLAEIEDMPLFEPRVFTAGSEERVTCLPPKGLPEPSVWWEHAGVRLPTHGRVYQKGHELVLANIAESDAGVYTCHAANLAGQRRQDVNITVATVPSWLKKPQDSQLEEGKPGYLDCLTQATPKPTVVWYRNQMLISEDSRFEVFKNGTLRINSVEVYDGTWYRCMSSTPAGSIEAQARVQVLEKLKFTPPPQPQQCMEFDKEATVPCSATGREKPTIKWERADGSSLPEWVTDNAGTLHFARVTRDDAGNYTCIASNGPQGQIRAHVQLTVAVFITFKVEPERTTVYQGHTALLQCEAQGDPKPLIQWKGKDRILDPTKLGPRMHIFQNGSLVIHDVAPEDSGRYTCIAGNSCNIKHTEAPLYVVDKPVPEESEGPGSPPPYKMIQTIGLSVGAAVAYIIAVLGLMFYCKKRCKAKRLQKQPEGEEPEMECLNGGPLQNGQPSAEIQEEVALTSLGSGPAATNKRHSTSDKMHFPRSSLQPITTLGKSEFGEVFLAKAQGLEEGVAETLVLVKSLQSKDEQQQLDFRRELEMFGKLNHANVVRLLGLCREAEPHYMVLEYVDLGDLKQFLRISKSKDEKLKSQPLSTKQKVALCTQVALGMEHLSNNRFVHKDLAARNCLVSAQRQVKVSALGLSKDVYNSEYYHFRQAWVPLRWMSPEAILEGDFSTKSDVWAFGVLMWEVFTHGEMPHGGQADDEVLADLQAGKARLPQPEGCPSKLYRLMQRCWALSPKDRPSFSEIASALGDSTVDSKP
# Target: PTK7 (membrane protein on HeLa cells) (human (HeLa cells)) (UniProt Q13308)
# Assay: flow cytometry and confocal microscopy on cells
# Details: 200 nM (printed 200 nmol), no binding to Ramos cells, 5' amino coupled to poly(maleic anhydride-alt-1-octadecene), multivalent micelle, Intact cells, 200 uL of 200 nM (printed 200 nmol) FITC-labelled aptamer, 1 h at 4 C in the dark, buffer and pH not stated, protein on the cell surface, label: 3' FITC, single-stranded DNA
sequence,measurement,value
ATCTAACTGCTGCGCCGCCGGGAAAATACTGTACGGTTAGA [C18-sgc8-FITC (C18PMH-sgc8 micelle)],binding result,binds

# Construct, isoform or probe ends are uncertain for at least one entry. Results from cells or extracts need not show a direct contact. At least one verdict was read from the data and is not stated in words by the source.
